In patent publication EP4678627A1, “NOVEL FERROPTOSIS INHIBITORS” (Universiteit Antwerpen, priority 2024, dated 2026) one finds microsomal CLint data, which are given here for 1 molecule.

This series is described as follows: in vitro. The settings on record: male, CD-1, mouse, microsomes, pH 7.4.

Usually microsomal CLint stands for the capacity of the preparation to metabolise the compound, expressed as a volume cleared per time.

Regarding `CN(C)CCOC(c1ccccc1)c1ccccc1` [Diphenhydramine], the microsomal CLint at 1 µM turned out to be 45.1 µL/min/mg.
